From publication PMC11042806
No constants are given. Whether binding was seen depends on the method and setting. In cells and extracts the contact can be indirect. Some results given as binding are weak or reduced against the parent protein; the word gives no strength. Sequences can lack the tags named with a protein.

Target: T1, Foxp3 (untagged), Q99JB6
T1 chain: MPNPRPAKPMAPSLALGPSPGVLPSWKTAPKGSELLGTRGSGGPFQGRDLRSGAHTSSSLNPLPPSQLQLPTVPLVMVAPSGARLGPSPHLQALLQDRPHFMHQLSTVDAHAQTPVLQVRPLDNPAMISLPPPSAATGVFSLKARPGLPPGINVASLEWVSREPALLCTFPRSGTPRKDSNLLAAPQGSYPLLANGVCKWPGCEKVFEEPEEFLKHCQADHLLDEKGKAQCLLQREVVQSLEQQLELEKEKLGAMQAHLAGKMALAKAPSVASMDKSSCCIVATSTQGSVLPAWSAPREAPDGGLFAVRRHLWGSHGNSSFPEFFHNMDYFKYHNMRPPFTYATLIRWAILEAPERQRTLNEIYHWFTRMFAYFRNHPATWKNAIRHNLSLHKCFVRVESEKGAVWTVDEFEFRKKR
Test: co-IP; HEK293T cells co-transfected with Flag-Ik1 and untagged Foxp3, lysate after 48 hr; immunoprecipitation (legend: Foxp3-immunoprecipitated extracts; methods: Flag IP kit), immunoblot for Foxp3 and FLAG
Settings: remark: other sources report otherwise

- binding: binds
B1: FLAG-tagged full-length Ikaros (Ik1), Q03267 1-517 (protein)
chain: MDVDEGQDMSQVSGKESPPVSDTPDEGDEPMPVPEDLSTTSGAQQNSKSDRGMGSNVKVETQSDEENGRACEMNGEECAEDLRMLDASGEKMNGSHRDQGSSALSGVGGIRLPNGKLKCDICGIVCIGPNVLMVHKRSHTERPFQCNQCGASFTQKGNLLRHIKLHSGEKPFKCHLCNYACRRRDALTGHLRTHSVGKPHKCGYCGRSYKQRSSLEEHKERCHNYLESMGLPGVCPVIKEETNHNEMAEDLCKIGAERSLVLDRLASNVAKRKSSMPQKFLGDKCLSDMPYDSANYEKEDMMTSHVMDQAINNAINYLGAESLRPLVQTPPGSSEVVPVISSMYQLHKPPSDGPPRSNHSAQDAVDNLLLLSKAKSVSSEREASPSNSCQDSTDTESNAEEQRSGLIYLTNHINPHARNGLALKEEQRAYEVLRAASENSQDAFRVVSTSGEQLKVYKCEHCRVLFLDHVMYTIHMGCHGCHGFRDPFECNMCGYHSQDRYEFSSHITRGEHRYHLS
